# Laboratory results from PubChem BioAssay AID1508615 (Milbrandt Lab, Department of Genetics, Washington …, 2020).
# Sequences of proteins named here, by UniProt entry; tags and fusion partners are left off. A change or cut given only in a name is not applied to a line headed by its entry.
# UniProt Q6SZW1: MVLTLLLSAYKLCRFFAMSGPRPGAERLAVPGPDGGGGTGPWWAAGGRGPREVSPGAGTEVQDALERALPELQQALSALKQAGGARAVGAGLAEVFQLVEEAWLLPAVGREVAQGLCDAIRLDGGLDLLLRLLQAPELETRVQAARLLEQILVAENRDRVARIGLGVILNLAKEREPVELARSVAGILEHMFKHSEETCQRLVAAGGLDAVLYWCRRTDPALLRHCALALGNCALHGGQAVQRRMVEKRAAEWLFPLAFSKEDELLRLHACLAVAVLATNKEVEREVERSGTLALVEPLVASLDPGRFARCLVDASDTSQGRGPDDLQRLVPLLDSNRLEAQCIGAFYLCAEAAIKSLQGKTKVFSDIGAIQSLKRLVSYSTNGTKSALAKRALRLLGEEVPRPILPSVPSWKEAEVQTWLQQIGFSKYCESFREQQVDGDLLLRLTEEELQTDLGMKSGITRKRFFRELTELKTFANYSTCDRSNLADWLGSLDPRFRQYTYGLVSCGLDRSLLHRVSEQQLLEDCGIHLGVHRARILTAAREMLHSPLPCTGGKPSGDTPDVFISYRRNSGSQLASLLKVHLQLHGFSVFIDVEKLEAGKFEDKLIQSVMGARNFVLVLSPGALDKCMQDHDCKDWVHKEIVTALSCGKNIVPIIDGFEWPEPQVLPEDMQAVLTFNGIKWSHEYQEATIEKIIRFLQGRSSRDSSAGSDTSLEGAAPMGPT
# Hit rate of the full screen: of about 1,600 compounds, about 20 (1%) were called active.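 The calls were made as follows: active = ratio of uncleaved NAD to its breakdown product ADP-ribose above 4, meaning the enzyme was inhibited; inactive = the rest.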 Some of the results follow.
# Target: NAD(+) hydrolase SARM1 (Homo sapiens) (UniProt Q6SZW1)
# Test: inhibition of SAM-TIR NAD hydrolysis to ADPR – cell lysate, HPLC readout, primary screen (AID 1508615);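 also: substrate NAD at 5 µM with 60 min at 37 °C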
# Conditions: HEK293T SAM-TIR lysate, NAD/ADPR ratio by HPLC; at 5 µM; active compounds read high
row,Compound,NAD/ADPR ratio
1,CCOC(=O)c1cc(-c2cccnc2)nc2c(Cl)cc(Cl)cc12,inactive: 3
2,O=C(Nc1ccccc1-c1ccccc1)C(=O)Nc1ccccc1-c1ccccc1,inactive: 3
3,c1ccc(-c2nnc(-c3ccccc3)nn2)cc1,inactive: 3
4,c1ccc(-c2n[nH]c(-c3ccccn3)n2)nc1,inactive: 3
5,O=C(c1cccnc1)c1cc(-c2ccccn2)c(=O)n2ccccc12,inactive: 3
6,O=C(O)CCCCC1SCC2NC(=O)NC21 (centres undefined),inactive: 3
7,CCCc1nc(NC(=O)c2ccccc2)nc(NC(=O)c2ccccc2)n1,inactive: 3
8,COc1cccc2c1C(CO)N1C(C#N)C3CC(C(=O)O)C(C1C2)N3C (centres undefined),inactive: 3
9,Nc1cnc(Nc2ccc(Br)cc2)nc1N,inactive: 3
10,OCCCCc1nccc2c1[nH]c1ccccc12,inactive: 3
11,O=C(/C=C/c1ccc2ccccc2n1)c1cc(Cl)ccc1O,inactive: 3
12,COC(=O)CC1(C(=O)OC)Nc2cc(Cl)c(Cl)cc2S(=O)(=O)N1O (centres undefined),active: 13.5
13,O=C(/C=C/C(=O)N1CCc2ccccc2C1)N1CCc2ccccc2C1,inactive: 3
14,COC(=O)c1cc2c(n1S(=O)(=O)c1ccc(C)cc1)C(=O)C(=O)c1[nH]cc(C(=O)OCc3ccccc3)c1-2,inactive: 3
15,CC(C)(C)c1ccc(C(=O)Nc2ccc(S(N)(=O)=O)cc2)cc1,inactive: 3
16,COc1ccc(OC)c(NC(=O)c2cc3oc4ccccc4c3cc2O)c1,inactive: 3
17,Clc1nc(NCCc2ccccc2)c2cn[nH]c2n1,inactive: 2.8
18,Cn1ncc2c(Nc3ccc([N+](=O)[O-])cc3)nc(Cl)nc21,inactive: 3
19,O=C1C2CC3N1CCC31c3ccccc3-n3c1c2ccc3=O (centres undefined),inactive: 3
20,Cc1nc(/N=C(\N)N(C)C)[nH]c(=O)c1C,inactive: 3
21,Cc1nc2nc(C(F)(F)F)[nH]c2nc1C,inactive: 3
22,O=C(Nc1ccc(Cl)c(Cl)c1)Nc1ccc([N+](=O)[O-])cn1,inactive: 3
23,O=C1CSCc2nc3ccccc3n21,inactive: 3
24,Cc1ccc(-c2cc(C(=O)O)c3ccccc3n2)c(C)c1,inactive: 3
25,Clc1nnc(NC2CCCCC2)c(Cl)c1Cl,inactive: 3

row,Compound,NAD/ADPR ratio
1,COC(=O)C(=Cc1ccccc1[N+](=O)[O-])C(=O)OC,inactive: 3
2,COc1ccc2c3c([nH]c2c1)C1CC2C(CC(O)C(OC)C2CO)CN1CC3 (centres undefined),inactive: 3
3,C=CCNC(=O)C1COc2ccccc2O1 (centres undefined),inactive: 3
4,Cn1c2ccccc2c2ccc3c(c21)C(=O)C=CC3=O,active: 12.5
5,Cc1cc2c3ccccc3ncn2n1,inactive: 3
6,CCOC(=O)c1c(C)nc(C)c(C(=O)OCC)c1-c1cccnc1,inactive: 3
7,c1ccc2c(c1)Nc1ccncc1S2,inactive: 3
8,Cc1cc2c(c(C#N)c1C)NC=NC2C (centres undefined),inactive: 3
9,CN(C)c1ccc(N=Nc2cccc3ccoc23)cc1,inactive: 3
10,Cn1c(N)c(N=Nc2ccc(S(N)(=O)=O)cc2)c(=O)n(C)c1=O,inactive: 3
11,N=c1ccn2c(n1)OC1C(O)C(CO)OC12 (centres undefined),inactive: 3
12,COC(=O)c1ccc(Cn2cnc3c(Cl)ncnc32)cc1,inactive: 3
13,CC(C)CCCCCCCCCCCCC(=O)NCC(=O)NC1C(C)OC(Nc2ncnc3nc[nH]c23)C(O)C1O (centres undefined),inactive: 3
14,CCCNC(=S)Nc1ccccc1,inactive: 3
15,O=[N+]([O-])c1ccc2c(c1)S(=O)c1ccccc1-2 (centres undefined),inactive: 3
16,CN1CCN(C2=NCCO2)CC1,inactive: 3
17,CC1=Nc2ccccc2/C1=C\c1c(C)[nH]c2ccccc12,inactive: 3
18,CN1CCC(n2[nH]c(-c3ccccc3)c(Cc3ccccc3)c2=O)CC1,inactive: 3
19,c1coc(CNc2ncnc3[nH]ncc23)c1,inactive: 3
20,O=C1NC(=S)S/C1=C\c1ccccc1C(=O)O,inactive: 3
21,N#CN=C(N)c1ccccc1,inactive: 3
22,O=C1c2cccc(Oc3ccccc3)c2C(=O)c2cccc(Oc3ccccc3)c21,inactive: 3
23,COC(=O)N1C2CCCCC2=NN(c2ccccc2)N1C(=O)OC (centres undefined),inactive: 3
24,CCOc1ccc(NC(=O)c2cc3ccccc3cc2O)cc1,inactive: 3
25,CCOC(=O)Cc1csc2nc(-c3ccccc3)nn12,inactive: 1.9

# Taken from the results shown (20 entries):
row,Compound,NAD/ADPR ratio
21,Cc1nc2nc(C(F)(F)F)[nH]c2nc1C,inactive: 3
22,O=C(Nc1ccc(Cl)c(Cl)c1)Nc1ccc([N+](=O)[O-])cn1,inactive: 3
23,O=C1CSCc2nc3ccccc3n21,inactive: 3
24,Cc1ccc(-c2cc(C(=O)O)c3ccccc3n2)c(C)c1,inactive: 3
25,Clc1nnc(NC2CCCCC2)c(Cl)c1Cl,inactive: 3
1,COC(=O)C(=Cc1ccccc1[N+](=O)[O-])C(=O)OC,inactive: 3
2,COc1ccc2c3c([nH]c2c1)C1CC2C(CC(O)C(OC)C2CO)CN1CC3 (centres undefined),inactive: 3
3,C=CCNC(=O)C1COc2ccccc2O1 (centres undefined),inactive: 3
4,Cn1c2ccccc2c2ccc3c(c21)C(=O)C=CC3=O,active: 12.5
5,Cc1cc2c3ccccc3ncn2n1,inactive: 3
6,CCOC(=O)c1c(C)nc(C)c(C(=O)OCC)c1-c1cccnc1,inactive: 3
7,c1ccc2c(c1)Nc1ccncc1S2,inactive: 3
8,Cc1cc2c(c(C#N)c1C)NC=NC2C (centres undefined),inactive: 3
9,CN(C)c1ccc(N=Nc2cccc3ccoc23)cc1,inactive: 3
10,Cn1c(N)c(N=Nc2ccc(S(N)(=O)=O)cc2)c(=O)n(C)c1=O,inactive: 3
11,N=c1ccn2c(n1)OC1C(O)C(CO)OC12 (centres undefined),inactive: 3
12,COC(=O)c1ccc(Cn2cnc3c(Cl)ncnc32)cc1,inactive: 3
13,CC(C)CCCCCCCCCCCCC(=O)NCC(=O)NC1C(C)OC(Nc2ncnc3nc[nH]c23)C(O)C1O (centres undefined),inactive: 3
14,CCCNC(=S)Nc1ccccc1,inactive: 3
15,O=[N+]([O-])c1ccc2c(c1)S(=O)c1ccccc1-2 (centres undefined),inactive: 3

# More structures follow:

row,Compound,NAD/ADPR ratio
1,CCCCCCCC1(C)NC(=O)NC1=O (centres undefined),inactive: 3
2,Cc1c2cnccc2c(C)c2c1c1ccccc1n2CCOC(=O)c1ccccc1,inactive: 3
3,Cc1nc(C(N)=O)nc2ccccc12,inactive: 3
4,C(=N\n1cnnc1)/c1ccc2c(c1)CCC2,inactive: 3
5,OC(COc1cccc2ccccc12)CN1CCN(c2ccccc2Cl)CC1 (centres undefined),inactive: 3
6,O=c1[nH]c2c(cnn2-c2ccc(Cl)cc2)c(=O)n1-c1cccc(Cl)c1,inactive: 3
7,CCN(CC)CCN=c1c(C)nc(C#N)c(N)n1O,inactive: 3
8,CSc1c(N(C)C)c(=O)c1=S,inactive: 3
9,Cc1ccccc1NC(=O)C(=O)Nc1ccccc1C,inactive: 3
10,O=c1cc(CO)[nH]nc1CO,inactive: 3
11,CN(C)c1nc(=NCc2ccco2)ss1,active: 9.7
12,Cn1ncc2c(Nc3ccccc3Cl)nc(Nc3ccccc3Cl)nc21,inactive: 3
13,CN(C)c1ccc2c(c1)Sc1cc(N(C)C)ccc1N2C(=O)c1ccccc1,inactive: 3
14,CC1=C(c2ccccc2)C=NNCC1=O,inactive: 3
15,O=C(Nc1cccc2c1N(C(=O)c1ccco1)CCC2)c1ccco1,inactive: 3
16,CCC(C)Nc1nc2c(c(=O)n(C)c(=O)n2C)n1C (centres undefined),inactive: 3
17,O=[N+]([O-])c1[nH]cnc1/C=C/c1ccccc1,inactive: 3
18,CC(O)c1nc2c(c(=O)n(C)c(=O)n2C)n1C (centres undefined),inactive: 3
19,NC(=O)c1ccccc1OCC(=O)Nc1ccc(Cl)c(Cl)c1,inactive: 3
20,O=C(NC(=S)Nc1cccc2c(O)cccc12)c1cccc(Br)c1,inactive: 3
21,CCOc1cc2c(Cl)ncnc2c(OCC)c1OCC,inactive: 3
22,CCOC(=O)Nc1ccc2nc(N3CCCCCC3)sc2c1,inactive: 3
23,CC(C)(C)c1ccc(OC(=O)c2ccccc2)cc1,inactive: 3
24,Cn1nc(SCc2ccccc2)c(=O)n(C(c2ccccc2)c2ccccc2)c1=O,inactive: 3
